From PubChem BioAssay AID330 (DTP/NCI, 2004)
The list does not hold the whole screen: it is rich in T/C values a quarter to a half above the control, in often repeated tests (any T/C) and in doses without a T/C. Further doses and runs are listed elsewhere. T/C is the treated group as % of the vehicle group. Some entries give survivors of the animals treated and no T/C: the source holds a T/C of zero for them, seemingly a mark for toxic or unscored doses. Some survivor counts are full or nearly so, which does not show that the dose was tolerated: survival well below the control is almost never listed, so the zero probably covers shortened survival too. Counts of survivors are from the toxicity check (mostly the fifth day) where no day follows; animals may have died later. Schedule codes are those of the source, read here as Q, the interval in days (D) or hours (H), X, the number of doses. Additions like (4×) say how often a value occurs here. Some doses were run more than once; the results are listed from low to high. Where survival is the endpoint, this PubChem deposit counts one and a half times the control or more as active, and values a quarter to a half above the control carry no call in these data; other NCI protocols may use other cut-offs. Some T/C values carry the count of animals alive at the toxicity check (mostly the fifth day); where none is given, no animal had died by that day.

System: P388 leukemia ip, CD2F1 mice, survival T/C
Test: NCI In Vivo Anticancer Drug Screen. Data for tumor model P388 Leukemia (intraperitoneal) in CD2F1 (CDF1) mice
Conditions: T/C endpoint: median survival time, higher T/C = longer survival
[1] = dose: 200.0 micrograms/kg/injection, schedule: Q01DX005 (ip), vehicle: other

`CC1OC(=O)C(C(C)C)NC(=O)C(C(C)C)OC(=O)C(C(C)C)NC(=O)C(C)OC(=O)C(C(C)C)NC(=O)C(C(C)C)OC(=O)C(C(C)C)NC(=O)C(C)OC(=O)C(C(C)C)NC(=O)C(C(C)C)OC(=O)C(C(C)C)NC1=O` (stereo unspecified) was tested, and the T/C (dose: 0.06 mg/kg/injection, schedule: Q01DX009 (ip), vehicle: other) was 141 % of control, the T/C (dose: 0.13 mg/kg/injection, schedule: Q01DX009 (ip), vehicle: other) was 134 % of control and the T/C (dose: 0.25 mg/kg/injection, schedule: Q01DX005 (ip), vehicle: Klucel (hydroxypropylcellulose) (HPC), evaluated on day 30) was 132 % of control. For the same molecule, the T/C (dose: 0.25 mg/kg/injection, schedule: Q01DX005 (ip), vehicle: Klucel (hydroxypropylcellulose) (HPC), evaluated on day 60) was 128 % of control, the survivor count (dose: 0.25 mg/kg/injection, schedule: Q01DX009 (ip), vehicle: Klucel (hydroxypropylcellulose) (HPC)) was 10 of 10 and the survivor count (dose: 0.25 mg/kg/injection, schedule: Q01DX009 (ip), vehicle: other) was 6 of 10. For the same molecule, the T/C (dose: 0.4 mg/kg/injection, schedule: Q01DX005 (ip), vehicle: DMSO) was 135 % of control, the T/C (dose: 0.5 mg/kg/injection, schedule: Q01DX005 (ip), vehicle: Klucel (hydroxypropylcellulose) (HPC), evaluated on day 30) was 145 % of control and the T/C (dose: 0.5 mg/kg/injection, schedule: Q01DX005 (ip), vehicle: Klucel (hydroxypropylcellulose) (HPC), evaluated on day 60) was 138 % of control. The survivor count (dose: 0.5 mg/kg/injection, schedule: Q01DX009 (ip), vehicle: other) was 2 of 10, the survivor count (dose: 0.8 mg/kg/injection, schedule: Q01DX005 (ip), vehicle: DMSO) was 0 of 5 and the survivor count (dose: 0.8 mg/kg/injection, schedule: Q01DX005 (ip), vehicle: other) was 3 of 5. For the same molecule, the T/C (dose: 0.94 mg/kg/injection, schedule: Q01DX009 (ip), vehicle: Klucel (hydroxypropylcellulose) (HPC)) was 149 % of control, the T/C (dose: 1.0 mg/kg/injection, schedule: Q01DX005 (ip), vehicle: Klucel (hydroxypropylcellulose) (HPC)) was 138 % of control and the T/C (dose: 1.0 mg/kg/injection, schedule: Q01DX009 (ip), vehicle: Klucel (hydroxypropylcellulose) (HPC)) was 130 % of control. For the same molecule, the survivor count (dose: 1.0 mg/kg/injection, schedule: Q01DX009 (ip), vehicle: other) was 0 of 10, the survivor count (dose: 1.25 mg/kg/injection, schedule: Q01DX009 (ip), vehicle: saline) was 6 of 6 and the survivor count (dose: 1.6 mg/kg/injection, schedule: Q01DX005 (ip), vehicle: DMSO) was 0 of 5. The survivor count (dose: 1.6 mg/kg/injection, schedule: Q01DX005 (ip), vehicle: other) was 0 of 5, the survivor count (dose: 1.88 mg/kg/injection, schedule: Q01DX009 (oral), vehicle: other) was 2 of 10 and the T/C (dose: 2.0 mg/kg/injection, schedule: Q01DX005 (ip), vehicle: Klucel (hydroxypropylcellulose) (HPC)) was 138 % of control. The survivor count (dose: 2.0 mg/kg/injection, schedule: Q01DX009 (ip), vehicle: other) was 0 of 10, the T/C (dose: 2.5 mg/kg/injection, schedule: Q01DX009 (ip), vehicle: Klucel (hydroxypropylcellulose) (HPC)) was 145 % of control and the survivor count (dose: 2.5 mg/kg/injection, schedule: Q01DX009 (ip), vehicle: other) was 0 of 10. The T/C (dose: 2.5 mg/kg/injection, schedule: Q01DX009 (ip), vehicle: saline with Tween-80) was 135 % of control, the survivor count (dose: 3.2 mg/kg/injection, schedule: Q01DX005 (ip), vehicle: other) was 0 of 5 and the T/C (dose: 3.75 mg/kg/injection, schedule: Q01DX009 (ip), vehicle: Klucel (hydroxypropylcellulose) (HPC)) was 142 % of control. For the same molecule, the survivor count (dose: 3.75 mg/kg/injection, schedule: Q01DX009 (oral), vehicle: other) was 0 of 10, the survivor count (dose: 5.0 mg/kg/injection, schedule: Q01DX009 (ip), vehicle: other) was 0 of 10 and the T/C (dose: 5.0 mg/kg/injection, schedule: Q04DX003 (ip), vehicle: saline with Tween-80) was 144 and 149 % of control. For the same molecule, the survivor count (dose: 7.5 mg/kg/injection, schedule: Q01DX009 (oral), vehicle: other) was 0 of 10, the survivor count (dose: 10.0 mg/kg/injection, schedule: Q01DX009 (ip), vehicle: other) was 0 of 10 and the survivor count (dose: 10.0 mg/kg/injection, schedule: Q01DX009 (ip), vehicle: saline with Tween-80) was 6 of 6. The survivor count (dose: 15.0 mg/kg/injection, schedule: Q01DX009 (ip), vehicle: Klucel (hydroxypropylcellulose) (HPC)) was 3 of 10, the survivor count (dose: 15.0 mg/kg/injection, schedule: Q01DX009 (oral), vehicle: Klucel (hydroxypropylcellulose) (HPC)) was 10 of 10 and the survivor count (dose: 15.0 mg/kg/injection, schedule: Q01DX009 (oral), vehicle: other) was 0 of 10. For the same molecule, the survivor count (dose: 16.0 mg/kg/injection, schedule: Q01DX005 (ip), vehicle: Klucel (hydroxypropylcellulose) (HPC)) was 9 of 10, the survivor count (dose: 20.0 mg/kg/injection, schedule: Q01DX009 (ip), vehicle: Klucel (hydroxypropylcellulose) (HPC)) was 10 of 10 and the survivor count (dose: 20.0 mg/kg/injection, schedule: Q01DX009 (ip), vehicle: other) was 0 of 10. For the same molecule, the survivor count (dose: 20.0 mg/kg/injection, schedule: Q01DX009 (ip), vehicle: saline with Tween-80) was 6 of 6, the survivor count (dose: 20.0 mg/kg/injection, schedule: Q04DX003 (ip), vehicle: saline with Tween-80) was 4 of 6 and the survivor count (dose: 30.0 mg/kg/injection, schedule: Q01DX009 (ip), vehicle: Klucel (hydroxypropylcellulose) (HPC)) was 0 of 10 and 9 of 10. The survivor count (dose: 30.0 mg/kg/injection, schedule: Q01DX009 (ip), vehicle: other) was 0 of 10, the survivor count (dose: 30.0 mg/kg/injection, schedule: Q01DX009 (oral), vehicle: Klucel (hydroxypropylcellulose) (HPC)) was 7 of 10 and the survivor count (dose: 30.0 mg/kg/injection, schedule: Q01DX009 (oral), vehicle: other) was 0 of 10. For the same molecule, the survivor count (dose: 40.0 mg/kg/injection, schedule: Q01DX009 (ip), vehicle: saline with Tween-80) was 1 of 6, the survivor count (dose: 40.0 mg/kg/injection, schedule: Q04DX003 (ip), vehicle: saline with Tween-80) was 0 of 6 and the survivor count (dose: 60.0 mg/kg/injection, schedule: Q01DX009 (oral), vehicle: Klucel (hydroxypropylcellulose) (HPC)) was 5 of 10. For the same molecule, the survivor count (dose: 60.0 mg/kg/injection, schedule: Q01DX009 (oral), vehicle: other) was 0 of 10, the T/C (dose: 50.0 micrograms/kg/injection, schedule: Q03HX008 (ip), vehicle: other) was 130 % of control and the T/C (dose: 50.0 micrograms/kg/injection, schedule: Q03HX020 (ip), vehicle: other) was 143 % of control. The T/C (dose: 50.0 micrograms/kg/injection, schedule: Q12HX010 (ip), vehicle: other) was 131 % of control, the T/C (dose: 100.0 micrograms/kg/injection, schedule: Q01DX005 (ip), vehicle: other, evaluated on day 30) was 129 % of control and the T/C (dose: 100.0 micrograms/kg/injection, schedule: Q01DX005 (ip), vehicle: other, evaluated on day 60) was 128 % of control [9 of 10 alive]. For the same molecule, the survivor count (dose: 100.0 micrograms/kg/injection, schedule: Q01DX005 (iv), vehicle: other) was 2 of 10, the T/C (dose: 100.0 micrograms/kg/injection, schedule: Q03HX008 (ip), vehicle: other) was 138 % of control and the survivor count (dose: 100.0 micrograms/kg/injection, schedule: Q12HX004 (iv), vehicle: other) was 6 of 10. The T/C (dose: 100.0 micrograms/kg/injection, schedule: Q12HX010 (ip), vehicle: other) was 137 % of control, the survivor count (dose: 200.0 micrograms/kg/injection, schedule: Q01DX001 (iv), vehicle: other) was 0 of 10 and the T/C [1] was 143 % of control [9 of 10 alive]. For the same molecule, the survivor count [1] was 0 of 10, the survivor count (dose: 200.0 micrograms/kg/injection, schedule: Q01DX005 (iv), vehicle: other) was 0 of 10 (2×) and the survivor count (dose: 200.0 micrograms/kg/injection, schedule: Q03HX020 (ip), vehicle: other) was 5 of 10. The T/C (dose: 200.0 micrograms/kg/injection, schedule: Q04DX002 (ip), vehicle: other) was 144 % of control, the survivor count (dose: 200.0 micrograms/kg/injection, schedule: Q04DX002 (iv), vehicle: other) was 0 of 10 and the T/C (dose: 200.0 micrograms/kg/injection, schedule: Q12HX004 (ip), vehicle: other) was 131 % of control. For the same molecule, the survivor count (dose: 400.0 micrograms/kg/injection, schedule: Q01DX005 (ip), vehicle: other) was 0 of 10 and 9 of 10, the survivor count (dose: 400.0 micrograms/kg/injection, schedule: Q01DX005 (iv), vehicle: other) was 0 of 10 and the survivor count (dose: 400.0 micrograms/kg/injection, schedule: Q03HX008 (ip), vehicle: other) was 4 of 10. For the same molecule, the survivor count (dose: 400.0 micrograms/kg/injection, schedule: Q03HX020 (ip), vehicle: other) was 0 of 10, the survivor count (dose: 400.0 micrograms/kg/injection, schedule: Q04DX002 (ip), vehicle: other) was 6 of 10 and the T/C (dose: 400.0 micrograms/kg/injection, schedule: Q12HX004 (ip), vehicle: other) was 144 % of control. For the same molecule, the survivor count (dose: 400.0 micrograms/kg/injection, schedule: Q12HX010 (ip), vehicle: other) was 6 of 10, the survivor count (dose: 800.0 micrograms/kg/injection, schedule: Q01DX005 (ip), vehicle: other) was 0 of 10 (2×) and the survivor count (dose: 800.0 micrograms/kg/injection, schedule: Q01DX005 (iv), vehicle: other) was 0 of 10. For the same molecule, the survivor count (dose: 800.0 micrograms/kg/injection, schedule: Q04DX002 (ip), vehicle: other) was 1 of 10, the survivor count (dose: 800.0 micrograms/kg/injection, schedule: Q12HX004 (ip), vehicle: other) was 3 of 10 and the survivor count (dose: 1600.0 micrograms/kg/injection, schedule: Q01DX001 (ip), vehicle: other) was 0 of 10. For the same molecule, the survivor count (dose: 1600.0 micrograms/kg/injection, schedule: Q01DX005 (ip), vehicle: other) was 0 of 10, the survivor count (dose: 1600.0 micrograms/kg/injection, schedule: Q01DX005 (iv), vehicle: other) was 0 of 10 and the survivor count (dose: 1600.0 micrograms/kg/injection, schedule: Q04DX002 (ip), vehicle: other) was 0 of 10.
